Substitutions are numbered along the chain they refer to. These are yes or no findings as the source states them, for the method shown. For some of these results: Binding seen in cells or lysates may run through a third protein. Some entries that bind do so weakly or less than the wild type. For some of these results: Sequences can lack the tags named with a protein.

The target in assay [1] is HA-FAT10 (HLA-F adjacent transcript 10, HA-tagged) (human) (UniProt O15205). Nature of the assay: co-IP; HEK293 cells transiently transfected; NP-40 lysate; immunoprecipitation with anti-HA agarose against HA-FAT10, blot for FLAG; with or without 10 uM MG132 for 6 h.
Assay [2] has as its target HA-FAT10-AV (conjugation incompetent diglycine mutant) (human) (UniProt O15205). Described as above.
For assay [3], the target named is T1, 6-His-AOS1 (subunit of recombinant AOS1/UBA2) (human) (UniProt Q9UBE0).
T1 sequence: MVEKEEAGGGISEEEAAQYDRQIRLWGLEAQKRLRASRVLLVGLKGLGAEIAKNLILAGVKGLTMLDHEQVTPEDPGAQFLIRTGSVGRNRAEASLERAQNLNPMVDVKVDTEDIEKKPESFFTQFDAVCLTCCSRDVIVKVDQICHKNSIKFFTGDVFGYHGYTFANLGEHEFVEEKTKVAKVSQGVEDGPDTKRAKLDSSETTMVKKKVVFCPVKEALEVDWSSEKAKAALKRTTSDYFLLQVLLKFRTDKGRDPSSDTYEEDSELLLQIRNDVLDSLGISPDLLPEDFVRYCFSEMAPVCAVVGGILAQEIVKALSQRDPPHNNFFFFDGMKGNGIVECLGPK
Nature of the assay: cross-linking; XL-MS with H12/D12 BS3; AOS1/UBA2 and FAT10 or FAT10-AV at a molar ratio of about 1:6, 10 min on ice, crosslinked 30 min at 37 °C, in the absence of ATP; Tris buffer; both purified.

Assay [4] concerns the target T2, UBA2 (subunit of recombinant AOS1/UBA2) (human) (UniProt Q9UBT2).
T2 sequence: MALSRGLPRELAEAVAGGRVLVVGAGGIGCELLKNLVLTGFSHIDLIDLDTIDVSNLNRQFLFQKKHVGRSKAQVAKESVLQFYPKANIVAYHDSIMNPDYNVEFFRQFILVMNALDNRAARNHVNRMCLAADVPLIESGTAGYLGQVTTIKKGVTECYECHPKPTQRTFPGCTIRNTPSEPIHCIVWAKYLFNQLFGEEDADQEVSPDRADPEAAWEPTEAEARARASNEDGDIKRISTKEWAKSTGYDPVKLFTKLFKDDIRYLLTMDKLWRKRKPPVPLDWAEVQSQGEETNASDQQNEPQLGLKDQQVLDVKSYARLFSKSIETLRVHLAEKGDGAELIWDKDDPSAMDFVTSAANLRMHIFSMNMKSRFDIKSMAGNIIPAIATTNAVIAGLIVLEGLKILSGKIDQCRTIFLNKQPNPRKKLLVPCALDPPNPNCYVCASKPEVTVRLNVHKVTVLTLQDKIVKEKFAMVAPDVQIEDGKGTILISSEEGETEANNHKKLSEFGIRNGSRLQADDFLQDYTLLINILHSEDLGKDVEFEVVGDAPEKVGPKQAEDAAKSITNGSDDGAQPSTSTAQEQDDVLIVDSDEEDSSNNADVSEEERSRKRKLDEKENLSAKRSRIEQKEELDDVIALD
The description is as above.

Assay [5] deals with T1, 6-His-AOS1 (subunit of recombinant AOS1/UBA2) (human). Nature of the assay: cross-linking; quantitative XL-MS with H12/D12 BS3; AOS1/UBA2 alone, with SUMO-1 (1:4) or with SUMO-1 and FAT10 (1:4:4), 15 min at 30 °C in reaction buffer with 4 mM ATP, crosslinked 30 min at 37 °C; both purified.

B1: JunB-FLAG (JunB with a C-terminal FLAG-tag) (protein, UniProt P17275 1-347)
chain: MCTKMEQPFYHDDSYTATGYGRAPGGLSLHDYKLLKPSLAVNLADPYRSLKAPGARGPGPEGGGGGSYFSGQGSDTGASLKLASSELERLIVPNSNGVITTTPTPPGQYFYPRGGGSGGGAGGAGGGVTEEQEGFADGFVKALDDLHKMNHVTPPNVSLGATGGPPAGPGGVYAGPEPPPVYTNLSSYSPASASSGGAGAAVGTGSSYPTTTISYLPHAPPFAGGHPAQLGLGRGASTFKEEPQTVPEARSRDATPPVSPINMEDQERIKVERKRLRNRLAATKCRKRKLERIARLEDKVKTLKAENAGLSSTAGLLREQVAQLKQKVMTHVSNGCQLLLGVKGHAF
For B1, the binding entry in assay [1] and in assay [2] was “binds” in each case.

B2: FAT10-AV, recombinant, untagged (natural protein, human, UniProt O15205 2-165, looked up)
chain: APNASCLCVHVRSEEWDLMTFDANPYDSVKKIKEHVRSKTKVPVQDQVLLLGSKILKPRRSLSSYGIDKEKTIHLTLKVVKPSDEELPLFLVESGDEAKRHLLQVRRSSSVAQVKAMIETKTGIIPETQIVTCNGKRLEDGKMMADYGIRKGNLLFLACYCIAV
notes: FAT10 (ubiquitin D, UBD), human, C-terminal diglycine motif changed from GG to AV; also called FAT10 diglycine mutant FAT10-AV; source: E. coli BL21(DE3) (pSUMO-FAT10-AV), purified (HisTrap, tag removal with ULP-1, cation exchange)
As to B2, the binding result in assay [3] and in assay [4] was “binds” each time.

B3: FAT10, recombinant, untagged (natural protein, human, UniProt O15205 2-165, looked up)
chain: B2 chain with A163G, V164G
notes: FAT10 (ubiquitin D, UBD), human; also called wild-type FAT10; source: E. coli BL21(DE3) (pSUMO-FAT10), purified (HisTrap, tag removal with ULP-1, cation exchange)
With B3, the binding entry in assay [3], in assay [4] and in assay [5] was “binds” throughout.

The values are drawn from PMC6773726, “The ubiquitin-like modifier FAT10 interferes with SUMO activation” (Nature Communications, 2019).
